{"source": "the supplement of paper PMC8728848", "assay_in_all_cases": "glycan array binding signal (z-score within array); higher = stronger binding", "conditions_in_all_cases": "glycan notation: IUPAC condensed, linker removed", "key": {"[1]": {"target": "Gal(b1-4)GlcNAc(b1-3)Gal(b1-4)GlcNAc(b1-3)Gal(b1-4)GlcNAc(b1-3)Gal(b1-4)GlcNAc(b1-2)Man(a1-3)[Gal(b1-4)GlcNAc(b1-3)Gal(b1-4)GlcNAc(b1-3)Gal(b1-4)GlcNAc(b1-3)Gal(b1-4)GlcNAc(b1-2)Man(a1-6)]Man(b1-4)GlcNAc(b1-4)GlcNAc", "in_short": "(§1)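 From the Consortium for Functional Glycomics database, 3228 arrays were curated, keeping only those whose protein sequence was available. Binding is given as a within-array Z-score averaged across arrays sharing a protein sequence and across linkers. Negative Z-scores can be read as non-binding.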"}, "[2]": {"target": "Gal(b1-4)GlcNAc(b1-3)Gal(b1-4)GlcNAc(b1-3)Gal(b1-4)GlcNAc(b1-3)Gal(b1-4)GlcNAc(b1-2)Man(a1-3)[Gal(b1-4)GlcNAc(b1-3)Gal(b1-4)GlcNAc(b1-3)Gal(b1-4)GlcNAc(b1-3)Gal(b1-4)GlcNAc(b1-2)Man(a1-6)]Man(b1-4)GlcNAc(b1-4)[Fuc(a1-6)]GlcNAc", "in_short": "as §1"}, "[3]": {"target": "Gal(b1-4)GlcNAc(b1-3)Gal(b1-4)GlcNAc(b1-3)Gal(b1-4)GlcNAc(b1-3)Gal(b1-4)GlcNAc(b1-2)[Gal(b1-4)GlcNAc(b1-3)Gal(b1-4)GlcNAc(b1-3)Gal(b1-4)GlcNAc(b1-3)Gal(b1-4)GlcNAc(b1-6)]Man(a1-6)[Gal(b1-4)GlcNAc(b1-3)Gal(b1-4)GlcNAc(b1-3)Gal(b1-4)GlcNAc(b1-3)Gal(b1-4)GlcNAc(b1-2)Man(a1-3)]Man(b1-4)GlcNAc(b1-4)[Fuc(a1-6)]GlcNAc", "in_short": "as §1"}, "[4]": {"target": "Gal(b1-4)GlcNAc(b1-3)Gal(b1-4)GlcNAc(b1-3)Gal(b1-4)GlcNAc(b1-3)Gal(b1-4)GlcNAc(b1-3)Gal(b1-4)GlcNAc(b1-2)Man(a1-3)[Gal(b1-4)GlcNAc(b1-3)Gal(b1-4)GlcNAc(b1-3)Gal(b1-4)GlcNAc(b1-3)Gal(b1-4)GlcNAc(b1-3)Gal(b1-4)GlcNAc(b1-2)Man(a1-6)]Man(b1-4)GlcNAc(b1-4)GlcNAc", "in_short": "as §1"}, "[5]": {"target": "Gal(b1-4)GlcNAc(b1-3)Gal(b1-4)GlcNAc(b1-3)Gal(b1-4)GlcNAc(b1-3)Gal(b1-4)GlcNAc(b1-3)Gal(b1-4)GlcNAc(b1-2)Man(a1-3)[Gal(b1-4)GlcNAc(b1-3)Gal(b1-4)GlcNAc(b1-3)Gal(b1-4)GlcNAc(b1-3)Gal(b1-4)GlcNAc(b1-3)Gal(b1-4)GlcNAc(b1-2)Man(a1-6)]Man(b1-4)GlcNAc(b1-4)[Fuc(a1-6)]GlcNAc", "in_short": "as §1"}, "[6]": {"target": "Gal(b1-4)GlcNAc(b1-3)Gal(b1-4)GlcNAc(b1-3)Gal(b1-4)GlcNAc(b1-3)Gal(b1-4)GlcNAc(b1-3)Gal(b1-4)GlcNAc(b1-2)[Gal(b1-4)GlcNAc(b1-3)Gal(b1-4)GlcNAc(b1-3)Gal(b1-4)GlcNAc(b1-3)Gal(b1-4)GlcNAc(b1-3)Gal(b1-4)GlcNAc(b1-6)]Man(a1-6)[Gal(b1-4)GlcNAc(b1-3)Gal(b1-4)GlcNAc(b1-3)Gal(b1-4)GlcNAc(b1-3)Gal(b1-4)GlcNAc(b1-3)Gal(b1-4)GlcNAc(b1-2)Man(a1-3)]Man(b1-4)GlcNAc(b1-4)[Fuc(a1-6)]GlcNAc", "in_short": "as §1"}, "[7]": {"target": "Gal(b1-4)GlcNAc(b1-3)Gal(b1-4)GlcNAc(b1-3)Gal(b1-4)GlcNAc(b1-3)Gal(b1-4)GlcNAc(b1-3)Gal(b1-4)GlcNAc(b1-3)Gal(b1-4)GlcNAc(b1-2)Man(a1-3)[Gal(b1-4)GlcNAc(b1-3)Gal(b1-4)GlcNAc(b1-3)Gal(b1-4)GlcNAc(b1-3)Gal(b1-4)GlcNAc(b1-3)Gal(b1-4)GlcNAc(b1-3)Gal(b1-4)GlcNAc(b1-2)Man(a1-6)]Man(b1-4)GlcNAc(b1-4)GlcNAc", "in_short": "as §1"}, "[8]": {"target": "Gal(b1-4)GlcNAc(b1-3)Gal(b1-4)GlcNAc(b1-3)GalNAc", "in_short": "as §1"}, "[9]": {"target": "Gal(b1-4)GlcNAc(b1-3)Gal(b1-4)GlcNAc(b1-3)[Gal(b1-4)GlcNAc(b1-3)Gal(b1-4)GlcNAc(b1-6)]GalNAc", "in_short": "as §1"}, "[10]": {"target": "Gal(b1-4)GlcNAc(b1-3)Gal(b1-4)GlcNAc(b1-6)[Gal(b1-3)]GalNAc", "in_short": "as §1"}, "[11]": {"target": "Gal(b1-4)GlcNAc(b1-3)Gal(b1-4)[Fuc(a1-3)]GlcNAc(b1-3)Gal(b1-4)[Fuc(a1-3)]GlcNAc", "in_short": "as §1"}, "[12]": {"target": "Gal(b1-4)GlcNAc(b1-3)GalNAc", "in_short": "as §1"}, "[13]": {"target": "Gal(b1-4)GlcNAc(b1-3)[Fuc(a1-3)GlcNAc(b1-6)]Gal(b1-4)Glc", "in_short": "as §1"}, "[14]": {"target": "Gal(b1-4)GlcNAc(b1-3)[Gal(b1-4)GlcNAc(b1-6)]Gal(b1-4)GlcNAc", "in_short": "as §1"}, "[15]": {"target": "Gal(b1-4)GlcNAc(b1-3)[GlcNAc(b1-6)]Gal(b1-4)GlcNAc", "in_short": "as §1"}, "[16]": {"target": "Gal(b1-4)GlcNAc(b1-6)Gal(b1-4)GlcNAc", "in_short": "as §1"}, "[17]": {"target": "Gal(b1-4)GlcNAc(b1-6)GalNAc", "in_short": "as §1"}, "[18]": {"target": "Gal(b1-4)GlcNAc(b1-6)[Gal(b1-3)]GalNAc", "in_short": "as §1"}, "[19]": {"target": "Gal(b1-4)GlcNAc(b1-6)[Gal(b1-4)GlcNAc(b1-3)]GalNAc", "in_short": "as §1"}, "Gal(b1-4)GlcNAc6P": {"target": "Gal(b1-4)GlcNAc6P", "in_short": "as §1"}, "Gal(b1-6)Gal": {"target": "Gal(b1-6)Gal", "in_short": "as §1"}, "Gal3S(b1-3)GalNAc": {"target": "Gal3S(b1-3)GalNAc", "in_short": "as §1"}, "Gal3S(b1-3)GlcNAc": {"target": "Gal3S(b1-3)GlcNAc", "in_short": "as §1"}, "[20]": {"target": "Gal3S(b1-3)[Fuc(a1-4)]GlcNAc", "in_short": "as §1"}, "Gal3S(b1-4)Glc": {"target": "Gal3S(b1-4)Glc", "in_short": "as §1"}, "Gal3S(b1-4)Glc6S": {"target": "Gal3S(b1-4)Glc6S", "in_short": "as §1"}, "Gal3S(b1-4)GlcNAc": {"target": "Gal3S(b1-4)GlcNAc", "in_short": "as §1"}, "[21]": {"target": "Gal3S(b1-4)[Fuc(a1-3)]Glc6S", "in_short": "as §1"}, "[22]": {"target": "Gal3S(b1-4)[Fuc(a1-3)]GlcNAc", "in_short": "as §1"}, "[23]": {"target": "Gal3S(b1-4)[Fuc(a1-3)]GlcNAc6S", "in_short": "as §1"}, "Gal3S4S(b1-4)GlcNAc": {"target": "Gal3S4S(b1-4)GlcNAc", "in_short": "as §1"}, "Gal3S6S(b1-4)GlcNAc": {"target": "Gal3S6S(b1-4)GlcNAc", "in_short": "as §1"}, "Gal3S6S(b1-4)GlcNAc6S": {"target": "Gal3S6S(b1-4)GlcNAc6S", "in_short": "as §1"}, "Gal4S(b1-4)GlcNAc": {"target": "Gal4S(b1-4)GlcNAc", "in_short": "as §1"}, "Gal4S6S(b1-4)GlcNAc": {"target": "Gal4S6S(b1-4)GlcNAc", "in_short": "as §1"}, "Gal6P(b1-4)GlcNAc": {"target": "Gal6P(b1-4)GlcNAc", "in_short": "as §1"}, "Gal6S(b1-3)GlcNAc": {"target": "Gal6S(b1-3)GlcNAc", "in_short": "as §1"}, "Gal6S(b1-3)GlcNAc6S": {"target": "Gal6S(b1-3)GlcNAc6S", "in_short": "as §1"}}, "note": "Some of the results follow.", "data": [{"binder": "Clec12b (Mus musculus), Q149M0 (protein) MSDEVTYATLMLQDSARVRGNQDGNNLRKEGHPAQSSLWRGAALSLMTLCLVLVTGLVTLATMFLQVSNDINSDSEKLSQLQKSIHPQQDNLSESLNSSRKSLTEESLQSQISALLERQEQMATKLCKEFLIHASDHKCNPCPKTWQWYGNSCYYFSINEEKSWSDSRKDCIDKNATLVKIDSTEERDLLQSQLSLTFSFFWLGLSWNSSGRNWLWEDGSFPPPTLFSDKELASFNGSRDCAYFERGNIYASRCSAEIPWICEKTASLVKTEDLD", "values": [{"measurement": "glycan array binding signal (z-score)", "setting": "[1]", "value": 0.598}, {"measurement": "glycan array binding signal (z-score)", "setting": "[2]", "value": -0.356}, {"measurement": "glycan array binding signal (z-score)", "setting": "[3]", "value": 0.114}, {"measurement": "glycan array binding signal (z-score)", "setting": "[4]", "value": 0.028}, {"measurement": "glycan array binding signal (z-score)", "setting": "[5]", "value": -0.022}, {"measurement": "glycan array binding signal (z-score)", "setting": "[6]", "value": -0.146}, {"measurement": "glycan array binding signal (z-score)", "setting": "[7]", "value": 0.314}, {"measurement": "glycan array binding signal (z-score)", "setting": "[8]", "value": -0.489}, {"measurement": "glycan array binding signal (z-score)", "setting": "[9]", "value": 0.566}, {"measurement": "glycan array binding signal (z-score)", "setting": "[10]", "value": -0.381}, {"measurement": "glycan array binding signal (z-score)", "setting": "[11]", "value": -0.078}, {"measurement": "glycan array binding signal (z-score)", "setting": "[12]", "value": -0.173}, {"measurement": "glycan array binding signal (z-score)", "setting": "[13]", "value": -0.595}, {"measurement": "glycan array binding signal (z-score)", "setting": "[14]", "value": 0.133}, {"measurement": "glycan array binding signal (z-score)", "setting": "[15]", "value": -0.625}, {"measurement": "glycan array binding signal (z-score)", "setting": "[16]", "value": -0.107}, {"measurement": "glycan array binding signal (z-score)", "setting": "[17]", "value": -0.428}, {"measurement": "glycan array binding signal (z-score)", "setting": "[18]", "value": -0.227}, {"measurement": "glycan array binding signal (z-score)", "setting": "[19]", "value": 0.417}, {"measurement": "glycan array binding signal (z-score)", "setting": "Gal(b1-4)GlcNAc6P", "value": 0.097}, {"measurement": "glycan array binding signal (z-score)", "setting": "Gal(b1-6)Gal", "value": -0.5}, {"measurement": "glycan array binding signal (z-score)", "setting": "Gal3S(b1-3)GalNAc", "value": -0.284}, {"measurement": "glycan array binding signal (z-score)", "setting": "Gal3S(b1-3)GlcNAc", "value": 0.026}, {"measurement": "glycan array binding signal (z-score)", "setting": "[20]", "value": -0.44}, {"measurement": "glycan array binding signal (z-score)", "setting": "Gal3S(b1-4)Glc", "value": 1.5}, {"measurement": "glycan array binding signal (z-score)", "setting": "Gal3S(b1-4)Glc6S", "value": 0.531}, {"measurement": "glycan array binding signal (z-score)", "setting": "Gal3S(b1-4)GlcNAc", "value": -0.199}, {"measurement": "glycan array binding signal (z-score)", "setting": "[21]", "value": 2.1}, {"measurement": "glycan array binding signal (z-score)", "setting": "[22]", "value": -0.281}, {"measurement": "glycan array binding signal (z-score)", "setting": "[23]", "value": 0.41}, {"measurement": "glycan array binding signal (z-score)", "setting": "Gal3S4S(b1-4)GlcNAc", "value": -0.044}, {"measurement": "glycan array binding signal (z-score)", "setting": "Gal3S6S(b1-4)GlcNAc", "value": -0.112}, {"measurement": "glycan array binding signal (z-score)", "setting": "Gal3S6S(b1-4)GlcNAc6S", "value": 0.23}, {"measurement": "glycan array binding signal (z-score)", "setting": "Gal4S(b1-4)GlcNAc", "value": -0.218}, {"measurement": "glycan array binding signal (z-score)", "setting": "Gal4S6S(b1-4)GlcNAc", "value": -0.671}, {"measurement": "glycan array binding signal (z-score)", "setting": "Gal6P(b1-4)GlcNAc", "value": -0.695}, {"measurement": "glycan array binding signal (z-score)", "setting": "Gal6S(b1-3)GlcNAc", "value": 0.386}, {"measurement": "glycan array binding signal (z-score)", "setting": "Gal6S(b1-3)GlcNAc6S", "value": -0.655}]}]}
